Source: US9573955B2, “Compounds” (CHIESI FARMACEUTICI S.p.A., priority 2013, dated 2017)
Some results were stated once for a whole list of compounds, not compound by compound. For at least one compound, name, drawing or mass did not settle the structure.

Biological target: T1, human neutrophil elastase (HNE) (Homo sapiens, UniProt P08246)
T1 sequence (P08246 30-267): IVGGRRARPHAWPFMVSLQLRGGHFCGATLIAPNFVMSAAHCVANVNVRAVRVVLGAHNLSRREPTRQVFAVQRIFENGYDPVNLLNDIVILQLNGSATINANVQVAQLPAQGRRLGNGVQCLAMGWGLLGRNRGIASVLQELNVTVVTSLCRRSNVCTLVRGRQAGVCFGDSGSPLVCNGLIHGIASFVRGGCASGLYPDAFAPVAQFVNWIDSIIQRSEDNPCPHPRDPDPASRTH
Test: HNE Enzyme Assay
Assay type: biochemical
Details: human leukocyte elastase, substrate MeOSuc-Ala-Ala-Pro-Val-AMC 100 μM, 25° C., 30 minutes, pH 7.5; read-out: HNE inhibition

SMILES: COC(=O)C1=C(C)N(c2cccc(C(F)(F)F)c2)c2n[nH]c(=O)n2[C@@H]1c1ccc(C#N)cc1CC[N+](C)(C)Cc1cnc(C)s1 [Example 22, (2-{5-Cyano-2-[(R)-6-methoxycarbonyl-7-methyl-3-oxo-8-(3-trifluoromethyl-phenyl)-2,3,5,8-tetrahydro-[1,2,4]triazolo[4,3a]pyrimidin-5-yl]-phenyl}-ethyl)-dimethyl-(2-methyl-thiazol-5-ylmethyl)-ammonium chloride]
- IC50: < 20 nM
